PubChem BioAssay (EPA / NIEHS)
Inconclusive means that the source gave no clear call. Such entries were picked first, then a sample of the others. For part of these data: A potency beside an inconclusive call is a rough fit, not a confirmed value. Activity calls are given as the source filed them. How the source made its calls: active means hit-call score of the fitted dose curve at least 0.9, where 1 is the maximum; inconclusive means response in the unintended direction; inactive means score below 0.9.

Chains of the proteins cited; added tags and fusions are not shown. Lines headed by an entry give the natural chain unless they say otherwise; changes in a name come on top.
UniProt O75469: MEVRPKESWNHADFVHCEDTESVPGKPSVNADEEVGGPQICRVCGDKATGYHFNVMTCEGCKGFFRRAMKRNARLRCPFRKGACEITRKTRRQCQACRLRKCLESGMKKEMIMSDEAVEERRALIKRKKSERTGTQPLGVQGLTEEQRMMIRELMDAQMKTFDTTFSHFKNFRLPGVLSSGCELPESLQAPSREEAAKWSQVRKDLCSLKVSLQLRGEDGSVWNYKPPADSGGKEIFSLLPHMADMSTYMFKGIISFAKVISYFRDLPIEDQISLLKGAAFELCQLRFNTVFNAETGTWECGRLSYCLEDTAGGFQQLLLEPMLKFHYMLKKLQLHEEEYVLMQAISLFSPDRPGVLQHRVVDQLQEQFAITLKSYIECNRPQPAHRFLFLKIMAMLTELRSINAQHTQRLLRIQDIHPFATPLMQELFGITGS
UniProt Q96RI1: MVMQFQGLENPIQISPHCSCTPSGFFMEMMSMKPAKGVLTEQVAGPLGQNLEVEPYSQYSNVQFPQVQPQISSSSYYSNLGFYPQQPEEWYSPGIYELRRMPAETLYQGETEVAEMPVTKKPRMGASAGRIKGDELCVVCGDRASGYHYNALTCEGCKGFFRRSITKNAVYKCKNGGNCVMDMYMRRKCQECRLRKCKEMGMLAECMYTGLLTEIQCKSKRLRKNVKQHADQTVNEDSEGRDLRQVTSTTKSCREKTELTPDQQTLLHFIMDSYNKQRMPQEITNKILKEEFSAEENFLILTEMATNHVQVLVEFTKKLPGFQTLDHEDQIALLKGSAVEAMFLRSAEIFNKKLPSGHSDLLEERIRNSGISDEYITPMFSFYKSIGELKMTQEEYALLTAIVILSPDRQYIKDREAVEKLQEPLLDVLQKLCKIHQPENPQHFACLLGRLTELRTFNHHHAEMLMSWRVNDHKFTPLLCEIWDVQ
UniProt P37231: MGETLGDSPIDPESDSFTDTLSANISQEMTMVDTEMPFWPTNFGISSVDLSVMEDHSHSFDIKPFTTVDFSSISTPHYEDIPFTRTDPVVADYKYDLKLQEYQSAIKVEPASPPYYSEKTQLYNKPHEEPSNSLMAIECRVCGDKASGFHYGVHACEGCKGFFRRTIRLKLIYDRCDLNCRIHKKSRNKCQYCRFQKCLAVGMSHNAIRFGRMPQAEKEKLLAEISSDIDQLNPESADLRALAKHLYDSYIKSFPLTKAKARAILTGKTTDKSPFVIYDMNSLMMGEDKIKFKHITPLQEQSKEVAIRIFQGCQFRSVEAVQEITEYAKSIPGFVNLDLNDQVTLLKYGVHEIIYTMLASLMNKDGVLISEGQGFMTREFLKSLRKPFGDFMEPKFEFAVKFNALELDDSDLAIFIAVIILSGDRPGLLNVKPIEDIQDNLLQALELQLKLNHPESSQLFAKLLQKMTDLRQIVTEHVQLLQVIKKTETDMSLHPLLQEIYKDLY
UniProt P19785, whole entry, looked up: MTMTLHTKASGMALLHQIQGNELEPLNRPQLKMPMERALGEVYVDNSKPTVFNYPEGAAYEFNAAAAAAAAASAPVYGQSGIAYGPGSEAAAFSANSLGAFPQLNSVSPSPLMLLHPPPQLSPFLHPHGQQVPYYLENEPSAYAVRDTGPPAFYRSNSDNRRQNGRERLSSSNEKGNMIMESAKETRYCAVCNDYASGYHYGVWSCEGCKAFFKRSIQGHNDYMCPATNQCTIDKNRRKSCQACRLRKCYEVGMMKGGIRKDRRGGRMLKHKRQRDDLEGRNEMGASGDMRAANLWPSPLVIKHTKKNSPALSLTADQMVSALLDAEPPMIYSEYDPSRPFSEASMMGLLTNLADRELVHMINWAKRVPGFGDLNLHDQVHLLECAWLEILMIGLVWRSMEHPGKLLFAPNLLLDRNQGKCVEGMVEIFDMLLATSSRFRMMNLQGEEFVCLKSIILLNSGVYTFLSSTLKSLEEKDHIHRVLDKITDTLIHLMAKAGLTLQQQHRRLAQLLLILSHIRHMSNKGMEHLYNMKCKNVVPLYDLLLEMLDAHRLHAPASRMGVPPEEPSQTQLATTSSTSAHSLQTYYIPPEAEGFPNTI
UniProt Q60492, whole entry, looked up: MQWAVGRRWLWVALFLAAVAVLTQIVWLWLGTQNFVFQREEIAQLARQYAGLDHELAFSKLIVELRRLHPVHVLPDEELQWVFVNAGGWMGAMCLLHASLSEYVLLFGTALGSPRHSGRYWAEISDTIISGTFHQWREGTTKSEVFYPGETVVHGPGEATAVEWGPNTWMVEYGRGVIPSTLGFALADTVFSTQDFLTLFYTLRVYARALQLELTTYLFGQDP
UniProt Q92731, whole entry, looked up: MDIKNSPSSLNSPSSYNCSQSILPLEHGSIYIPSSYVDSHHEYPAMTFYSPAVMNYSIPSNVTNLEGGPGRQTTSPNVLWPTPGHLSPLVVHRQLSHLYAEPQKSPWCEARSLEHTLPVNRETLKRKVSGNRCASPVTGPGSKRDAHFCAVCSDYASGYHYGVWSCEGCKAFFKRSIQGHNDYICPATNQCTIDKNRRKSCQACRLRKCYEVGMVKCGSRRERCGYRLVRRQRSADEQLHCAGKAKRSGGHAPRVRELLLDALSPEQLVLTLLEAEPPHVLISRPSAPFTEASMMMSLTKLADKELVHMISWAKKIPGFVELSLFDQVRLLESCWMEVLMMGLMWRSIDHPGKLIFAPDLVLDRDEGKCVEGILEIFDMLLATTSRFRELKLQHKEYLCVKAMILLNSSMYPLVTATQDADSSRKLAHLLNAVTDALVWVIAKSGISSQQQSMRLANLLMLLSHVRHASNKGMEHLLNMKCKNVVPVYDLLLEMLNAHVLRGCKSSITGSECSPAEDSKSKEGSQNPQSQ
UniProt P10275: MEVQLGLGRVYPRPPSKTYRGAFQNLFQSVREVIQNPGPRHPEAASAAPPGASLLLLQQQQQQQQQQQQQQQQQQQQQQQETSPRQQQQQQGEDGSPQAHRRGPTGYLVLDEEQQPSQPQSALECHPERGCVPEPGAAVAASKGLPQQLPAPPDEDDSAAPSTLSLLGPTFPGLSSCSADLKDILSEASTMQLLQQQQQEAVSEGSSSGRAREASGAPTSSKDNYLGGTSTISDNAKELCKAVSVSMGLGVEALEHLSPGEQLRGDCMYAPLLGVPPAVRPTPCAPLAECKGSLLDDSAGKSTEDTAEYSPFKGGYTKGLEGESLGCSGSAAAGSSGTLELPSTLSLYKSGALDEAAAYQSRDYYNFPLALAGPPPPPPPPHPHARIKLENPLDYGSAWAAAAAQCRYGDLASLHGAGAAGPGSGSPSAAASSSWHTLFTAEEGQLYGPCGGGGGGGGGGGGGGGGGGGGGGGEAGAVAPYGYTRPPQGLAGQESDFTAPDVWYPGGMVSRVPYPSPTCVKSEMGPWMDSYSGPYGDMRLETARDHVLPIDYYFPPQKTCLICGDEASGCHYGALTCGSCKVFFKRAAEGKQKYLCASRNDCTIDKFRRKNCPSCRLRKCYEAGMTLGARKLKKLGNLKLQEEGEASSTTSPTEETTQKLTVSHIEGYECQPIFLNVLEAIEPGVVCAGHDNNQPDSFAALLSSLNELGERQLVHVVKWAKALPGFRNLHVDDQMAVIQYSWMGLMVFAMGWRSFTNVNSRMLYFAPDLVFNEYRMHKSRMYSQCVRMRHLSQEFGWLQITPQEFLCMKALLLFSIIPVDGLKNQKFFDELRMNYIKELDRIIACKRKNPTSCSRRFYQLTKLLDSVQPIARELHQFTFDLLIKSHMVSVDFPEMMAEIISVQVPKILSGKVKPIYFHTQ
UniProt P31652, whole entry, looked up: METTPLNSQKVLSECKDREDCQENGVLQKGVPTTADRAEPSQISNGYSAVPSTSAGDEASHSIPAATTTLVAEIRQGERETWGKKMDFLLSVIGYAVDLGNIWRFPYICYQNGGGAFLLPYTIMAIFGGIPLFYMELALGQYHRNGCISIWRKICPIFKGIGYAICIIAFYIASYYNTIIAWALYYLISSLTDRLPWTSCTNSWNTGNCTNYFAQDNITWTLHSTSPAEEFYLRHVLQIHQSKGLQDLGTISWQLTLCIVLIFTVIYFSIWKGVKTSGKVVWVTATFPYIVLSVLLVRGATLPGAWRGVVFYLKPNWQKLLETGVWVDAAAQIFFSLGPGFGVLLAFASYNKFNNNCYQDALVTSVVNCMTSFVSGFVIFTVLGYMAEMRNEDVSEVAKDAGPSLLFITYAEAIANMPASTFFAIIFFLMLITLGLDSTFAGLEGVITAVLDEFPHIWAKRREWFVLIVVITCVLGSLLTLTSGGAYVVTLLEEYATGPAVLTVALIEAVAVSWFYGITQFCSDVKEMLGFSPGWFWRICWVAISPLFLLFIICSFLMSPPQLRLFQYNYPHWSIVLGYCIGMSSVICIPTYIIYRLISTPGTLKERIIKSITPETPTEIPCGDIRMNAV
UniProt P15207: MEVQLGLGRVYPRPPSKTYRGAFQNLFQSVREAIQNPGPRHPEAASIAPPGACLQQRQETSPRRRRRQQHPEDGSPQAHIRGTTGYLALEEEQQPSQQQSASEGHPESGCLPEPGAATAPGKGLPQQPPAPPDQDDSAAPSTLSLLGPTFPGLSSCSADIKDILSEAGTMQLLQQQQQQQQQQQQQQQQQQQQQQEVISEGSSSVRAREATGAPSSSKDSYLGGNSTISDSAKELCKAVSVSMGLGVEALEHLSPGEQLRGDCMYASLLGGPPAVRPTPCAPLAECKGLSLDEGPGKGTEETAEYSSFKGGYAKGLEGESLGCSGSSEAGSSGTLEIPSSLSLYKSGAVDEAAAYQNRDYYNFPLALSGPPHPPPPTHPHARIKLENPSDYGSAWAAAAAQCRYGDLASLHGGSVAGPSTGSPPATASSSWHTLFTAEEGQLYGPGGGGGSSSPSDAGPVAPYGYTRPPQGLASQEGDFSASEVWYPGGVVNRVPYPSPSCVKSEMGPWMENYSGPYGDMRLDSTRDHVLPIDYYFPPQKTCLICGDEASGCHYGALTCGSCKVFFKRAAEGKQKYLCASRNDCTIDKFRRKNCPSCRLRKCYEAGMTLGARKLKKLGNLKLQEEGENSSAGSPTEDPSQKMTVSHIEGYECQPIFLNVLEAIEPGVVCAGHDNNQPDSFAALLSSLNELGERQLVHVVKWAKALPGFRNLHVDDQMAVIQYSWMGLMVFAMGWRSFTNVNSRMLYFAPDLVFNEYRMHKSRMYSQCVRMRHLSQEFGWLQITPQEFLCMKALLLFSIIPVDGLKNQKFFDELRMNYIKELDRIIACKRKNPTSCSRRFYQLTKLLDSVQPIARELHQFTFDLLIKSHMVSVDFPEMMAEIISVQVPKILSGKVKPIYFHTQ

Legend:
[1] = molecular target: Nuclear receptor subfamily 1 group I member 2 (Homo sapiens) (UniProt O75469); experiment: NVS_NR_hPXR: NovaScreen (NVS) Nuclear Receptor Binding Assay for human Pregnane X Receptor (PXR) (AID 2283365);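 further: a drop in FRET signal versus DMSO baseline means the compound binds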
In short: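 Cell-free TR-FRET binding assay with extracted human PXR protein, read 2 h after dosing. Primary screen run in duplicate at 25 uM, actives followed in concentration series; loss of signal fitted against DMSO baseline.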

[2] = molecular target: Bile acid receptor (Homo sapiens) (UniProt Q96RI1); experiment: OT_FXR_FXRSRC1_0480: Odyssey Thera (OT) 8-hour HEK293T Protein-Complementation Assay for Farnesoid X receptor/SRC-1 Co-activator (AID 2283383)
In short: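 Human kidney HEK293T cells carried FXR/SRC-1 fragment-complementation constructs. Compounds were added and incubated 8 h. Reporter reassembly upon receptor–co-activator interaction was then quantified by fluorescence, with curves fitted in the positive direction relative to DMSO.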

[3] = molecular target: Bile acid receptor (Homo sapiens) (UniProt Q96RI1); experiment: OT_FXR_FXRSRC1_1440: Odyssey Thera (OT) 24-hour HEK293T Protein-Complementation Assay for Farnesoid X receptor/SRC-1 Co-activator (AID 2283384)
In short: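 Compounds are applied to human kidney HEK293T cells expressing bait and prey fused to reporter protein fragments; after 24 h, reconstituted reporter fluorescence is measured. Activity is fitted as signal gain over DMSO.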

[4] = molecular target: Peroxisome proliferator-activated receptor gamma (Homo sapiens) (UniProt P37231); experiment: NVS_NR_hPPARg: NovaScreen (NVS) Nuclear Receptor Binding Assay for human Peroxisome Proliferator-activated Receptor gamma (PPARg) (AID 2283370)
In short: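 Cell-free fluorescence polarization binding to human PPARg protein, read 2 h after dosing. Primary screen in duplicate at 25 uM, actives followed in concentration series; loss of signal relative to DMSO scored.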

[5] = molecular target: mouse Estrogen Receptor alpha (Era), Esr1 (gene 13982) (UniProt P19785); experiment: NVS_NR_mERa: NovaScreen (NVS) Nuclear Receptor Binding Assay for mouse Estrogen Receptor alpha (Era) (AID 2283378);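 further: hit means loss of bound radioligand signal relative to DMSO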
In short: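 Cell-free radioligand competitive displacement binding, read by filter-based scintillation counting 18 h after dosing. Primary screen run in duplicate at 25 uM, actives retested in concentration series; loss of signal versus DMSO.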

[6] = molecular target: guinea pig Sigma Receptor, Non-selective Binding, SIGMAR1 (gene 100135589) (UniProt Q60492); experiment: NVS_OR_gSIGMA_NonSelective: NovaScreen (NVS) Nuclear Receptor Binding Assay for guinea pig Sigma Receptor, Non-selective Binding (AID 2283367)
In short: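 Guinea pig brain membranes, cell-free radioligand binding; read 1 h after dosing by filter-based scintillation counting. Loss of signal vs DMSO baseline taken as displacement. Primary screen single concentration 25 uM in duplicate; actives retested in concentration series.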

[7] = molecular target: Estrogen receptor beta (Homo sapiens) (UniProt Q92731); experiment: OT_ER_ERbERb_1440: Odyssey Thera (OT) 24-hour HEK293T Protein-Complementation Assay for Estrogen Receptor-beta/-beta Homodimer (AID 2283380);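 further: fluorescence gain from ER beta LBD homodimer complementation read by laser scanning cytometry; scored as signal increase over DMSO baseline for both agonists and antagonists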
In short: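 HEK293T cells stably expressing human ER-beta LBD (aa 310-547) PCA homodimer pair, dosed 24 h; formaldehyde-fixed, Draq5-stained. Readout: increase in nuclear (agonist) or nuclear plus cytoplasmic (antagonist) fluorescence intensity versus DMSO, gain-of-signal fitting.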

[8] = molecular target: Agonist Androgen Response Element (ARE), AR (gene 367) (UniProt P10275); experiment: OT_AR_ARELUC_AG_1440: Odyssey Thera (OT) 24-hour CHO-K1 Luciferase Assay for Agonist Androgen Response Element (ARE) (AID 2283379)
In short: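 Seed CHO-K1 cells; dose compounds for 24 h; add D-luciferin plus ATP in PBS; read luminescence. Signal increase relative to vehicle defines agonist activity, with at least 3 replicate wells per sample.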

[9] = molecular target: rat Serotonin Transporter (SERT), Slc6a4 (gene 25553) (UniProt P31652); experiment: NVS_TR_rSERT: NovaScreen (NVS) Transporter Assay for rat Serotonin Transporter (SERT) (AID 2283375)
In short: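 Rat forebrain membranes; radioligand displacement at SERT read by filter-based scintillation counting, 1 h after dosing. Screened in duplicate at 25 uM, actives then run in concentration series; loss of signal versus DMSO baseline.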

[10] = molecular target: rat Androgen Receptor (AR), Ar (gene 24208) (UniProt P15207); experiment: NVS_NR_rAR: NovaScreen (NVS) Nuclear Receptor Binding Assay for rat Androgen Receptor (AR) (AID 2283366)
In short: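 Cell-free radioligand binding on extracts of prostate from testosterone-pretreated rats, read by filter-based scintillation counting 18 h after dosing. Loss of bound signal fitted positively versus DMSO; primary screen in duplicate at 25 uM, actives followed up in concentration series.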

[11] = system: guinea pig Dopamine Transporter (DAT), gene 100714898; experiment: NVS_TR_gDAT: NovaScreen (NVS) Transporter Assay for guinea pig Dopamine Transporter (DAT) (AID 2283369);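 further: active compounds lower bound radioligand signal relative to DMSO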
In short: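 Guinea pig striatal membranes, cell-free radioligand binding with filter-based scintillation counting, read 2 h after dosing. Loss of signal versus DMSO baseline; single-concentration primary (25 uM) then concentration-response up to 50 uM.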

Which AC50 [1] does the source give for `CCCCCCCCCCCCCCC` here?
Its AC50 is inconclusive: 25 µM.

How did the AC50 [1] turn out when `Oc1cccc2ccccc12` was run?
Its AC50 is inconclusive: 25 µM.

What about the AC50 [2] of the same compound?
The AC50 was inconclusive: 50 µM.

How did the outcome [1] turn out when `C=CC(O)CCCCC` (centres undefined) was run?
The outcome was “inactive”.

And the AC50 [2]?
The AC50 was inconclusive: 0.0792 µM.

What about the AC50 [3] of the same compound?
The AC50 was inconclusive: 12 µM.

For `Cc1cc(C)c(S(=O)(=O)O)cc1N=Nc1cc(S(=O)(=O)O)c2ccccc2c1O`, which AC50 [1] is on record?
The AC50 was inconclusive: 0.757 µM.

What about the outcome [4] of the same compound?
Its outcome is “inactive”.

Which AC50 [1] does the source give for `COc1ccc(OC)cc1` here?
The AC50 was inconclusive: 0.383 µM.

With `CC(=O)C(C)=CC1C(C)=CCCC1(C)C` (centres undefined) as the compound, how does the AC50 [1] read?
Its AC50 is inconclusive: 5.88 µM.

And the outcome [5]?
The outcome was “inactive”.

Which AC50 [1] does the source give for `O=C(O)C1CCC(C(=O)O)CC1` (centres undefined) here?
Its AC50 is inconclusive: 0.996 µM.

What about the AC50 [5] of the same compound?
The AC50 was inconclusive: 25 µM.

What about the AC50 [3] of the same compound?
The AC50 was inconclusive: 50 µM.

What does the source list for `CC(C)(C)NC(=O)[C@H]1CC[C@H]2[C@@H]3CC[C@H]4NC(=O)C=C[C@]4(C)[C@H]3CC[C@]12C`?
outcome [1]: inactive; outcome [5]: inactive; AC50 [3]: active: 3.77 µM

For `CC(C)CCCC(C)(C)O`, which AC50 [1] is on record?
Its AC50 is inconclusive: 0.101 µM.

And the outcome [4]?
The outcome was “inactive”.

Which outcome [1] does the source give for `CC(=O)OCCC(C)C` here?
Its outcome is “inactive”.

What about the AC50 [6] of the same compound?
The AC50 was inconclusive: 25 µM.

How did the AC50 [1] turn out when `CCCCCCCCC=CCCCCCCCC1=NCCN1CCO` was run?
Its AC50 is inconclusive: 18.5 µM.

And the AC50 [7]?
Its AC50 is inconclusive: 50 µM.

What about the AC50 [2] of the same compound?
Its AC50 is inconclusive: 21.9 µM.

What about the AC50 [3] of the same compound?
The AC50 was inconclusive: 21.9 µM.

Which results are given for `CC(C=O)Cc1ccc(C(C)(C)C)cc1` (centres undefined)?
AC50 [1]: inconclusive: 25 µM; AC50 [8]: inconclusive: 50 µM

Which AC50 [1] does the source give for `CCCCOC(=O)CC(CC(=O)OCCCC)(OC(C)=O)C(=O)OCCCC` here?
Its AC50 is inconclusive: 25 µM.

What about the AC50 [4] of the same compound?
Its AC50 is inconclusive: 0.266 µM.

What about the AC50 [2] of the same compound?
Its AC50 is active: 9.51 µM.

What about the outcome [3] of the same compound?
The outcome was “inactive”.

How did the AC50 [1] turn out when `CCCCC1CCC(O)CC1` (centres undefined) was run?
Its AC50 is inconclusive: 25 µM.

And the AC50 [8]?
The AC50 was inconclusive: 92.9 µM.

With `CCC(C)(C)C1CCC(OC)CC1` (centres undefined) as the compound, how does the outcome [1] read?
Its outcome is “inactive”.

What about the outcome [2] of the same compound?
The outcome was “inactive”.

With `CC(CCl)OP(=O)(OC(C)CCl)OC(C)CCl` (centres undefined) as the compound, how does the AC50 [1] read?
The AC50 was active: 4.35 µM.

What about the outcome [4] of the same compound?
Its outcome is “inactive”.

What about the outcome [2] of the same compound?
The outcome was “inactive”.

With `CCCCCCc1ccc(O)cc1O` as the compound, how does the AC50 [4] read?
The AC50 was active: 25 µM.

What about the outcome [9] of the same compound?
Its outcome is “inactive”.

With `CC1(C)C(=O)N(Br)C(=O)N1Cl` as the compound, how does the AC50 [4] read?
Its AC50 is inconclusive: 4.96 µM.

Which AC50 [10] does the source give for `NC(=O)N1C(=O)C(C(=O)c2cc(Cl)cs2)c2cc(F)c(Cl)cc21` (centres undefined) here?
Its AC50 is active: 6.36 µM.

And the AC50 [4]?
Its AC50 is active: 5.35 µM.

What about the AC50 [5] of the same compound?
The AC50 was inconclusive: 25 µM.

Which AC50 [4] does the source give for `CC1(C)CC(N=C=O)CC(C)(CN=C=O)C1` (centres undefined) here?
Its AC50 is inconclusive: 10.7 µM.

How did the AC50 [1] turn out when `CCOc1ccccc1O` was run?
The AC50 was inconclusive: 25 µM.

And the AC50 [2]?
The AC50 was inconclusive: 50 µM.

What about the AC50 [3] of the same compound?
The AC50 was inconclusive: 50 µM.

`CCCCCCCCCCCCCCCC(=O)O` was tested. Which outcome [4] did it give?
Its outcome is “inactive”.

For `CC(=O)c1ccc2c(c1)[C@H](NC(=O)c1ccc(F)cc1)[C@@H](O)C(C)(C)O2`, which AC50 [4] is on record?
Its AC50 is inconclusive: 24.4 µM.

How did the outcome [11] turn out when `CCN(CC)c1ccc2c(c1)Oc1cc(N(CC)CC)ccc1C21OC(=O)c2ccccc21` was run?
The outcome was “inactive”.

Which AC50 [10] does the source give for `CC(C)(C)c1cc(O)c(C(C)(C)C)cc1O` here?
The AC50 was inconclusive: 9.98 µM.

What about the AC50 [4] of the same compound?
Its AC50 is inconclusive: 0.0644 µM.

And the AC50 [8]?
Its AC50 is inconclusive: 50 µM.
